Several values for one entry are separate records, joined by “and”; a condition that tells them apart may be missing. Equal values may be shown once. The name of at least one read-out is uncertain.
What was measured:
Format in all cases: in vivo, female Sprague Dawley rats
uterus = assay: Uterine weight in ovariectomized rats, 4-day oral dosing (Table 1); details: daily for 4 days
Method: In the examples illustrating the methods, a post-menopausal model was used in which effects of different treatments upon circulating lipids were determined.
(§1) Seventy-five day old female Sprague Dawley rats (weight range of 200 to 225 g) were obtained from Charles River Laboratories (Portage, Mich.). The animals were either bilaterally ovariectomized (OVX) or exposed to a sham surgical procedure at Charles River Laboratories, and then shipped after one week. Upon arrival, they were housed in metal hanging cages in groups of 3 or 4 per cage and had ad libitum access to food (calcium content approximately 0.5%) and water for one week. Room temperature was maintained at 22.2° ±1.7° C. with a minimum relative humidity of 40%. The photoperiod in the room was 12 hours light and 12 hours dark.
(§2) Dosing Regimen Tissue Collection. After a one week acclimation period (therefore, two weeks post-OVX) daily dosing with test compound was initiated. 17α-ethynyl estradiol or the test compound were given orally, unless otherwise stated, as a suspension in 1% carboxymethylcellulose or dissolved in 20% cyclodextrin. Animals were dosed daily for 4 days. Following the dosing regimen, animals were weighed and anesthetized with a ketamine: Xylazine (2:1, V:V) mixture and a blood sample was collected by cardiac puncture. The animals were then sacrificed by asphyxiation with CO2, the uterus was removed through a midline incision, and a wet uterine weight was determined.
(§3) Data presented in Table 1 below show comparative results among ovariectomized rats, rats treated with 17α-ethynyl estradiol (EE2; an orally available form of estrogen), and rats treated with certain compounds of the present invention. […] This uterine response to estrogen is well recognized in the art.
(§4) The data presented in Table 1 below reflects the response of 5 to 6 rats per treatment.

[1] = system: Uterine Eosinophil Peroxidase (EPO); assay: Uterine Eosinophil Peroxidase (EPO) Assay (Table 1); design: key: Vmax of absorbance increase at 450 nm, monitored over 1 min; details: OVX rats, daily for 4 days
From the text: as §1, §2
Uterine Eosinomhil Peroxidase (EPO) Assay. Uteri were kept at 4° C. until time of enzymatic analysis. The uteri were then homogenized in 50 volumes of 50 mM Tris buffer (pH-8.0) containing 0.005% Triton X-100. Upon addition of 0.01% hydrogen peroxide and 10 mM O-phenylenediamine (final concentrations) in Tris buffer, increase in absorbance was monitored for one minute at 450 nm. The presence of eosinophils in the uterus is an indication of estrogenic activity of a compound. The maximal velocity of a 15 second interval was determined over the initial, linear portion of the reaction curve.
As is expressed in the below data, estrogenicity also was assessed by evaluating the response of eosinophil infiltration into the uterus.
as §4

Serum cholesterol = Serum cholesterol in ovariectomized rats, 4-day oral dosing (Table 1); details: daily for 4 days
From the text: as §1, §2
Cholesterol Analysis. Blood samples were allowed to clot at room temperature for 2 hours, and serum was obtained following centrifugation for 10 minutes at 3000 rpm. Serum cholesterol was determined using a Boehringer Mannheim Diagnostics high performance cholesterol assay. Briefly the cholesterol was oxidized to cholest-4-en-3-one and hydrogen peroxide. The hydrogen peroxide was then reacted with phenol and 4-aminophenazone in the presence of peroxidase to produce a p-quinone imine dye, which was read spectrophotometrically at 500 nm. Cholesterol concentration was then calculated against a standard curve. The entire assay was automated using a Biomek Automated Workstation.
as §3, §4

Row | SMILES | Uterine Wt. (% inc. vs. OVX) (uterus; 10 mg/kg oral, 10 mg/kg) | Uterine EPO (V. max) ([1]; 1 mg/kg oral, 1 mg/kg) | Uterine EPO (V. max) ([1]; 10 mg/kg oral, 10 mg/kg) | Serum Cholesterol (% dec. vs. OVX) (Serum cholesterol; 1 mg/kg oral, 1 mg/kg) | Uterine Wt. (% inc. vs. OVX) (uterus; 0.1 mg/kg oral, 0.1 mg/kg) | Uterine EPO (V. max) ([1]; 0.1 mg/kg oral, 0.1 mg/kg) | Serum Cholesterol (% dec. vs. OVX) (Serum cholesterol; 0.1 mg/kg oral, 0.1 mg/kg) | Uterine Wt. (% inc. vs. OVX) (uterus; 1 mg/kg oral, 1 mg/kg) | Uterine Wt. (% inc. vs. OVX) (uterus; 25 mg/kg oral, 25 mg/kg) | Uterine EPO (V. max) ([1]; 25 mg/kg oral, 25 mg/kg) | Serum Cholesterol (% dec. vs. OVX) (Serum cholesterol; 10 mg/kg oral, 10 mg/kg) | Serum Cholesterol (% dec. vs. OVX) (Serum cholesterol; 25 mg/kg oral, 25 mg/kg)
1 | COc1ccc(-c2ccc(-c3ccc(F)cc3)nc2-c2ccc(OCCN3CCCCC3)cc2)cc1 [Example 6, 2-[4-[2-(1-Piperidinyl)ethoxy]phenyl]-3-(4-methoxyphenyl)-6-(4-fluorophenyl)pyridine] | 47.6% | 3.7 and 5.9 | 5.8 and 6.5 | 7.4% |  |  |  |  |  |  |  | 
2 | COc1ccc(-c2ccc(C)nc2-c2ccc(OCCN3CCCCC3)cc2)cc1 [Example 7, 2-[4-[2-(1-Piperidinyl)ethoxy]phenyl]-3-(4-methoxyphenyl)-6-methylpyridine] |  |  |  |  | -2.2% and 0.4% | 4.1 and 7.3 | 27.7% |  |  |  |  | 
3 | Cc1ccc(-c2ccc(O)cc2)c(-c2ccc(OCCN3CCCC3)cc2)n1 [Example 9, 2-[4-[2-(1-Pyrrolidinyl)ethoxy]phenyl]-3-(4-hydroxyphenyl)-6-methylpyridine] | 30.3% | 6.7 and 4.6 |  |  |  |  |  | 2% and 6.2% | 35.1% | 8.5 and 5.6 | 29.5% | 50.0%
4 | Oc1ccc(-c2ccc(-c3ccc(F)cc3)nc2-c2ccc(OCCN3CCCCC3)cc2)cc1 [Example 12, 2-[4-[2-(1-Piperidinyl)ethoxy]phenyl]-3-(4-hydroxyphenyl)-6-(4-fluorophenyl)pyridine] | 62.5% | 9.7 and 5.4 | 43.9 and 70.1 |  |  |  |  | 2.5% |  |  |  | 
5 | Oc1ccc(-c2ccc(-c3ccccc3)nc2-c2ccc(OCCN3CCCC3)cc2)cc1 [Example 13, 2-[4-[2-(1-Pyrrolidinyl)ethoxy]phenyl]-3-(4-hydroxyphenyl)-6-phenylpyridine] | 47.4% | 61.8 and 34.8 | 39.0 and 32.1 | 50.9% |  |  |  | 61.9% | 46.6% |  | 55.6% | 62.6% and 39.4%
